{"source": "patent US20240400677A1", "binders": {"B1": {"name": "Antibody 69 (antibody, V domains shown)", "VH": "QVQLVQSGAEVKKPGASVKVSCKASGYTFTSYYMHWVRQAPGQGLEWMGWMNPNSDNTGYAQKFQGRVTMTRDTSTSTVYMELSSLRSEDTAVYYCARVGVGYGYYYYGMDVWGQGTTVTVSS", "VL": "DIQMTQSPSSLSASVGDRVTITCRAGQSIGDYLNWYQQKPGKAPKLLIYAASSLQSGVPSRFSGSGSGTDFTLTISSLQPEDFATYYCQQSYSTPWTFGQGTKVEIK"}, "B2": {"name": "Antibody 70 (antibody, V domains shown)", "VH": "QVQLVQSGAEVKKPGASVKVSCKASGYTFSNYYMHWVRQAPGQGLEWMGWMNPNSGNTGYAQKFQGRVTMTRDTSTSTVYMELSSLRSEDTAVYYCARASMYSSSGFDYWGQGTLVTVSS", "VL": "DIVMTQSPLSLPVTPGEPASISCRSSQSLLHSNGYNYLDWYLQKPGQSPQLLIYLASTRAPGVPDRFSGSGSGTDFTLKISRVEAEDVGVYYCMQGSHWPPSFGQGTRLEIK"}, "B3": {"name": "Antibody 71 (antibody, V domains shown)", "VH": "QVQLVQSGAEVKKPGASVKVSCKASGYTFTSYYIHWVRQAPGQGLEWMGTINPSGGSTSYAQKFQGRVTMTRDTSTSTVYMELSSLRSEDTAVYYCARETSRWLRDYYYGMDVWGQGTTVTVSS", "VL": "DIVMTQSPLSLPVTPGEPASISCRSSQSLLHSNGYNYLDWYLQKPGQSPQLLIYDASSLESGVPDRFSGSGSGTDFTLKISRVEAEDVGVYYCMQGTHWPLTFGGGTKVEIK"}, "B4": {"name": "Antibody 72 (antibody, V domains shown)", "VH": "QVQLVQSGAEVKKPGASVKVSCKASGYTFTDNYLHWVRQAPGQGLEWMGIIETSGGSTDYAQKFQGRVTMTRDTSTSTVYMELSSLRSEDTAVYYCARSFGGYSYDDAFDIWGQGTTVTVSS", "VL": "B1 VL with R24Q, G26S, S28G, G30S, D31N, T94S, W96Y"}, "B5": {"name": "Antibody 74 (antibody, V domains shown)", "VH": "QVQLVQSGAEVKKPGASVKVSCKASGGTFSNYGFSWVRQAPGQGLEWMGWMSPSSGNTGYAQKFQGRVTMTRDTSTSTVYMELSSLRSEDTAVYYCARERSGSYFDYWGQGTLVTVSS", "VL": "EIVMTQSPATLSVSPGERATLSCRASQSVSSYLAWYQQKPGQAPRLLIYGTSTRATGIPARFSGSGSGTEFTLTISSLQSEDFAVYYCQQYGSLPFTFGQGTRLEIK"}, "B6": {"name": "Antibody 75 (antibody, V domains shown)", "VH": "QVQLVQSGAEVKKPGSSVKVSCKASGGTFSNYAISWVRQAPGQGLEWMGGIIPIFGSTASYAQKFQGRVTITADESTSTAYMELSSLRSEDTAVYYCARGVGDDTLTDWGQGTLVTVSS", "VL": "B3 VL with D55A, E60Q, G96A, T97L, H98Q, W99T"}, "B7": {"name": "Antibody 78 (antibody, V domains shown)", "VH": "QVQLVQSGAEVKKPGASVKVSCKASGYTFTTYGISWVRQAPGQGLEWMGWMDPNSGSTGYAQKFQGRVTMTRDTSTSTVYMELSSLRSEDTAVYYCARGRGNSYYYYYMDVWGKGTTVTVSS", "VL": "DIQMTQSPSSLSASVGDRVTITCRASQRIGSYLNWYQQKPGKAPKLLIYGASNLQSGVPSRFSGSGSGTDFTLTISSLQPEDFATYYCQQANSFPFTFGPGTKVDIK"}, "B8": {"name": "Antibody 79 (antibody, V domains shown)", "VH": "B2 VH with S30T, N31S, A99D, S100Q, S105Y, F107M, Y109V, L115T", "VL": "B1 VL with G26S, Q27E, G30T, D31N, Y32W, N34A, A50K, Q55E, S93G, W96Y"}, "B9": {"name": "Antibody 80 (antibody, V domains shown)", "VH": "QVQLVQSGAEVKKPGASVKVSCKASGYTFTRYDINWVRQAPGQGLEWMGWMNPNSGNTGYAQKLQGRVTMTRDTSTSTVYMELSSLRSEDTAVYYCARERVGYCSSTSCLHPLDYWGQGTLVTVSS", "VL": "DIQMTQSPSSLSASVGDRVTITCRASQGIRNDLGWYQQKPGKAPKLLIYSASNLQSGVPSRFSGSGSGTDFTLTISSLQPEDFATYYCQQSYDVPLTFGGGTKVEIK"}, "B10": {"name": "Antibody 81 (antibody, V domains shown)", "VH": "QVQLVQSGAEVKKPGASVKVSCKASGYTFTSYDINWVRQAPGQGLEWMGWISGYNGNTNYAQKFQGRVTMTRDTSTSTVYMELSSLRSEDTAVYYCARSFDWLLLLDYWGQGTLVTVSS", "VL": "DIQMTQSPSSLSASVGDRVTITCRASQSISSWLAWYQQKPGKAPKLLIYDATTLESGVPSRFSGSGSGTDFTLTISSLQPEDFATYYCQQYDSYPWTFGQGTKLEIK"}, "B11": {"name": "Antibody 82 (antibody, V domains shown)", "VH": "QVQLVQSGAEVKKPGASVKVSCKASGHTFNNNYIHWVRQAPGQGLEWMGIINPSGGSTSYAQKFQGRVTMTRDTSTSTVYMELSSLRSEDTAVYYCARQIQDYGYYYYGMDVWGQGTTVTVSS", "VL": "B5 VL with S31K, G50A, T51I, T53A, T56A, G92Y, L94S, F96P, R103K, L104V"}, "B12": {"name": "Antibody 11 (scFv, V domains shown)", "VH": "B1 VH with Y33D, M34I, H35N, D56G, R98K, V99G, G100A, G102A, Y103G, G104T", "VL": "B7 VL with R28T, G30N, S31N, G50D, Q55E, S56T, F96L, P100Q, D105E"}, "B13": {"name": "Antibody 13 (scFv, V domains shown)", "VH": "EVQLLESGGGLVQPGGSLRLSCAASGFTFSNSDMNWVRQAPGKGLEWVSYISSSGNTIYYADSVKGRFTISRDNSKNTLYLQMNSLRAEDTAVYYCARSNWNYPLDYYYMDVWGKGTTVTVSS", "VL": "B3 VL with D55A, E60Q, L101P, G105Q"}, "B14": {"name": "Antibody 37 (scFv, V domains shown)", "VH": "QVQLVQSGAEVKKPGASVKVSCKASGYTLNNYDINWVRQAPGQGLEWMGWISGYNGNTNYAQKLQGRVTMTRDTSTSTVYMELSSLRSEDTAVYYCARVGSSWEENDQWGQGTLVTVSS", "VL": "B10 VL with S31R, D50A, T52S, T53S, Y91T, D92H, Y94F, W96L, Q100G, L104V"}}, "key": {"[1]": {"target": "Human SIRPβ1 (plate-coated extracellular domain) (Homo sapiens)", "assay": "ELISA, coated SIRP ECD (2 µg/mL), anti-human IgG, luminescence"}, "[2]": {"target": "cynomolgus monkey SIRPβ1-His monomer protein (cynomolgus monkey)", "assay": "BLI Octet, captured scFv PPE, cyno SIRP"}}, "note": "Numbering of substitutions follows the chain as printed. These are yes or no findings as the source states them, for the method shown. For some assays here: Binding can be weak; no strength is given."}
{"binder": "B1", "values": [{"measurement": "binding", "setting": "[1]", "result": "no binding (tested: about 40 µg/mL)"}]}
{"binder": "B2", "values": [{"measurement": "binding", "setting": "[1]", "result": "no binding (tested: about 40 µg/mL)"}]}
{"binder": "B3", "values": [{"measurement": "binding", "setting": "[1]", "result": "no binding (tested: about 40 µg/mL)"}]}
{"binder": "B4", "values": [{"measurement": "binding", "setting": "[1]", "result": "no binding (tested: about 40 µg/mL)"}]}
{"binder": "B5", "values": [{"measurement": "binding", "setting": "[1]", "result": "no binding (tested: about 40 µg/mL)"}]}
{"binder": "B6", "values": [{"measurement": "binding", "setting": "[1]", "result": "no binding (tested: about 40 µg/mL)"}]}
{"binder": "B7", "values": [{"measurement": "binding", "setting": "[1]", "result": "no binding (tested: about 40 µg/mL)"}]}
{"binder": "B8", "values": [{"measurement": "binding", "setting": "[1]", "result": "no binding (tested: about 40 µg/mL)"}]}
{"binder": "B9", "values": [{"measurement": "binding", "setting": "[1]", "result": "no binding (tested: about 40 µg/mL)"}]}
{"binder": "B10", "values": [{"measurement": "binding", "setting": "[1]", "result": "no binding (tested: about 40 µg/mL)"}]}
{"binder": "B11", "values": [{"measurement": "binding", "setting": "[1]", "result": "no binding (tested: about 40 µg/mL)"}]}
{"binder": "B12", "values": [{"measurement": "binding", "setting": "[2]", "result": "binds"}]}
{"binder": "B13", "values": [{"measurement": "binding", "setting": "[2]", "result": "binds"}]}
{"binder": "B14", "values": [{"measurement": "binding", "setting": "[2]", "result": "binds"}]}
